Source: patent US4772587A, “Dipeptide derivative of fatty acid” (Suntory Limited, priority 1985, dated 1988)
Non-standard residues stand in square brackets, D forms with d. Residues, ends and D or L forms follow the SMILES beside them. *: point of attachment. Oleoyl = CCCCCCCC/C=C\CCCCCCCC(=O)*; Stearoyl = CCCCCCCCCCCCCCCCCC(=O)*; Palmitoyl = CCCCCCCCCCCCCCCC(=O)*; Nle = CCCC[CH](N)C(=O)O

Test system: experimental amnesia caused in rats by scopolamine
Test: Preventive effect against experimental amnesia caused in rats by scopolamine (passive avoidance learning)
Assay type: in vivo, Wister male rats
Conditions: one hour before learning
Procedure: Several of the anti-prolyl endopeptidase compounds of the present invention were checked for their ability to prevent the inhibition of long-term memory fixation by scopolamine. Solutions of physiological saline (0.3 ml) that contained selected compounds of the present inventions in varying amounts ([…], 0.25 mg, 0.1 mg, 0.025 mg and 0.010 mg/kg) were administered intraperitoneally once a day to Wister male rats (100-120 g). One hour after the administration, electric shocks (1.7 mA) were applied to the rats so that they would acquire passive avoidance learning. Immediately thereafter, scopolamine was administered intraperitoneally to each rat in an amount of 3 mg per kg of body weight.
The result of the test was assessed both 24 hours and 48 hours after the administration of scopolamine. The number of amnesic rats and of sound rats was counted for each of the control group (rats to which the test compounds had not been administered but to which only scopolamine and physiological saline had been administered intraperitoneally and the treated group (rats to which both the test compound and scopolamine had been administered). The results are shown in Table 3.

Row | SMILES | Learning: Initial avoidance time (sample 10 μg/kg i.p.) | Learning: No. of avoidance during learning (sample 10 μg/kg i.p.) | Learning: Initial avoidance time (sample 25 μg/kg i.p.) | Learning: No. of avoidance during learning (sample 25 μg/kg i.p.) | Learning: Initial avoidance time (sample 100 μg/kg i.p.) | Learning: No. of avoidance during learning (sample 100 μg/kg i.p.) | Learning: Initial avoidance time (sample 250 μg/kg i.p.) | Learning: No. of avoidance during learning (sample 250 μg/kg i.p.) | Learning: Initial avoidance time (sample 1 mg/kg i.p.) | Learning: No. of avoidance during learning (sample 1 mg/kg i.p.)
1 | CCCCCCCC/C=C\CCCCCCCC(=O)NC(CC(C)C)C(=O)N1CCCC1C=O (stereo not drawn) [SUAM 1140, Oleoyl-Leu-Pro-CHO] (Oleoyl-Leu-Pro-aldehyde; configuration not given here) | 4.7 s | 2.0 | 2.2 s | 2.0 | 3.1 s | 1.8 | 1.7 s | 2.4 | 9.4 s | 1.6
2 | CCCCCCCC/C=C\CCCCCCCC(=O)NC(C(=O)N1CCCC1C=O)C(C)C (stereo not drawn) [SUAM 1156, oleoyl-Val-Pro-CHO] (Oleoyl-Val-Pro-aldehyde; configuration not given here) |  |  |  |  | 1.8 s | 1.6 | 2.1 s | 2.8 | 3.5 s | 2.8
3 | CCCCCCCCCCCCCCCCCC(=O)NC(CC(C)C)C(=O)N1CCCC1C=O (stereo not drawn) [SUAM 1154, stearoyl-Leu-Pro-CHO] (Stearoyl-Leu-Pro-aldehyde; configuration not given here) |  |  |  |  | 4.7 s | 2.0 |  |  |  | 
4 | CCCCCCCC/C=C\CCCCCCCC(=O)N1CCCC1C(=O)N1CCCC1C=O (stereo not drawn) [SUAM 1215, Oleoyl-Pro-Pro-CHO] (Oleoyl-Pro-Pro-aldehyde; configuration not given here) | 2.2 s | 2.4 | 3.2 s | 1.8 |  |  |  |  |  | 
5 | CCCCCCCC/C=C\CCCCCCCC(=O)NC(CCCC)C(=O)N1CCCC1C=O (stereo not drawn) [SUAM 1166, oleoyl-norLeu-Pro-CHO] (Oleoyl-[Nle]-Pro-aldehyde; configuration not given here) |  |  | 3.7 s | 2.1 |  |  |  |  |  | 
6 | CCCCCCCC/C=C\CCCCCCCC(=O)NC(CCSC)C(=O)N1CCCC1C=O (stereo not drawn) [SUAM 1214, oleoyl-Met-Pro-CHO] (Oleoyl-Met-Pro-aldehyde; configuration not given here) | 4.6 s | 1.9 | 2.2 s | 2.0 | 1.8 s | 1.6 | 2.1 s | 2.8 | 9.5 s | 1.6
7 | CCCCCCCC/C=C\CCCCCCCC(=O)NC(CC(C)C)C(=O)NC(CC(C)C)C(=O)N1CCCC1C=O (stereo not drawn) [SUAM 1158, oleoyl-Leu-Leu-Pro-CHO] (Oleoyl-Leu-Leu-Pro-aldehyde; configuration not given here) |  |  | 1.7 s | 2.3 | 2.8 s | 3.0 |  |  |  | 
8 | CCCCCCCC/C=C\CCCCCCCC(=O)N[C@@H](Cc1ccccc1)C(=O)N1CCC[C@H]1C=O [SUAM 1212, oleoyl-Phe-Pro-CHO] (Oleoyl-Phe-Pro-aldehyde) |  |  | 2.7 s | 2.4 |  |  |  |  |  | 
9 | CCCCCCCCCCCCCCCC(=O)NC(CC(C)C)C(=O)N1CCCC1C=O (stereo not drawn) [SUAM 1155, palmitoyl-Leu-Pro-CHO] (Palmitoyl-Leu-Pro-aldehyde; configuration not given here) |  |  |  |  | 2.2 s | 3.0 |  |  |  | 
